PubChem BioAssay AID504784 – Drosophila RNAi Screening Center, 2011
In all, the deposit lists about 17,000 reagents; below is a random part of those with a known target gene and a result. 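Each column is one replicate's B-score; the combined score over replicates was not deposited, so single values may mislead.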 Names joined by + are all predicted targets of the reagent. Further read-outs or replicates are left out here.

- Screen: 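Genome-wide knock-down for genes giving too much or too little stored lipid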 (primary screen)
- Cell system: Drosophila Kc167 embryonic cells
- Reagent: long dsRNA against Drosophila genes, about 250 ng dsRNA per well
- Time to read-out: 4 days
- Challenge: cells fed 400 µM oleic acid bound to BSA
- Detection: 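Microscope images give a droplet-to-nucleus area ratio, taken as log and converted to a screen-wide B-score; higher values mean greater lipid storage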
- Direction: droplet/nuclear area B-score: higher = more stored lipid (overstorage)

The opening 4 records, to show the layout:
CG12219 [DRSC17829] | droplet/nuclear area B-score, replicate 1: 0.823
Coq3 (Coenzyme Q3) [DRSC03168] | droplet/nuclear area B-score, replicate 1: -0.484
TBC1d7 + mRpS24 [DRSC14611] | droplet/nuclear area B-score, replicate 1: 1.2
sel (seele) [DRSC06232] | droplet/nuclear area B-score, replicate 1: 0.0295

Main list, from the start:
CG12219 [DRSC17829] | droplet/nuclear area B-score, replicate 1: 0.823
Coq3 (Coenzyme Q3) [DRSC03168] | droplet/nuclear area B-score, replicate 1: -0.484
TBC1d7 + mRpS24 [DRSC14611] | droplet/nuclear area B-score, replicate 1: 1.2
sel (seele) [DRSC06232] | droplet/nuclear area B-score, replicate 1: 0.0295
CG34242 [DRSC09185] | droplet/nuclear area B-score, replicate 1: 1.05
CG18609 [DRSC06775] | droplet/nuclear area B-score, replicate 1: 1.71
CG9555 [DRSC03264] | droplet/nuclear area B-score, replicate 1: -2.41
FucTD (alpha1,3-fucosyltransferase D) [DRSC08634] | droplet/nuclear area B-score, replicate 1: 0.985
Lgr4 (Leucine-rich repeat-containing G protein-coupled receptor 4) [DRSC18970] | droplet/nuclear area B-score, replicate 1: 1.46
Lgr4 (Leucine-rich repeat-containing G protein-coupled receptor 4) [DRSC19884] | droplet/nuclear area B-score, replicate 1: 0.871
kz (kurz) [DRSC18786] | droplet/nuclear area B-score, replicate 1: -1.38
CG16824 [DRSC02525] | droplet/nuclear area B-score, replicate 1: 0.746
Pka-R2 (Protein kinase, cAMP-dependent, regulatory subunit type 2) [DRSC07509] | droplet/nuclear area B-score, replicate 1: -1.69
Spn42Dc (Serpin 42Dc) [DRSC05010] | droplet/nuclear area B-score, replicate 1: 0.532
Ance-4 [DRSC07104] | droplet/nuclear area B-score, replicate 1: 0.0888
Eglp2 (Entomoglyceroporin 2) [DRSC04294] | droplet/nuclear area B-score, replicate 1: -0.288
wor (worniu) [DRSC03637] | droplet/nuclear area B-score, replicate 1: -0.965
CG13021 [DRSC17893] | droplet/nuclear area B-score, replicate 1: 2.39
Npc2c (Niemann-Pick type C-2c) [DRSC15523] | droplet/nuclear area B-score, replicate 1: -0.0719
CG31638 [DRSC02269] | droplet/nuclear area B-score, replicate 1: 0.254
CG31638 [DRSC03259] | droplet/nuclear area B-score, replicate 1: -0.0493
PpN58A (Protein phosphatase N at 58A) [DRSC04642] | droplet/nuclear area B-score, replicate 1: -0.945
Mst33A [DRSC03371] | droplet/nuclear area B-score, replicate 1: -0.756
D1 (D1 chromosomal protein) [DRSC16638] | droplet/nuclear area B-score, replicate 1: 0.984
Dus1 (Dihydrouridine synthase 1) [DRSC00623] | droplet/nuclear area B-score, replicate 1: 1.28
CG42365 [DRSC04266] | droplet/nuclear area B-score, replicate 1: -0.111
CG13786 [DRSC02289] | droplet/nuclear area B-score, replicate 1: -2.43
CG17780 + CG17781 [DRSC15266] | droplet/nuclear area B-score, replicate 1: 0.905
sinah (sina homologue) [DRSC09910] | droplet/nuclear area B-score, replicate 1: 0.361
sinah (sina homologue) [DRSC22181] | droplet/nuclear area B-score, replicate 1: -0.0527
nSMase (neutral sphingomyelinase) [DRSC08237] | droplet/nuclear area B-score, replicate 1: 0.181
gnu (giant nuclei) [DRSC10497] | droplet/nuclear area B-score, replicate 1: 0.138
CG17739 [DRSC06689] | droplet/nuclear area B-score, replicate 1: 0.837
Fsn (F-box synaptic protein) [DRSC06875] | droplet/nuclear area B-score, replicate 1: -0.415
Atg8a (Autophagy-related 8a) [DRSC18024] | droplet/nuclear area B-score, replicate 1: -0.509
CG14881 [DRSC15005] | droplet/nuclear area B-score, replicate 1: -0.757
nompC (no mechanoreceptor potential C) [DRSC03581] | droplet/nuclear area B-score, replicate 1: -0.694
CG15286 [DRSC01907] | droplet/nuclear area B-score, replicate 1: -0.159
ppk17 (pickpocket 17) [DRSC02252] | droplet/nuclear area B-score, replicate 1: -0.247
POSH (Plenty of SH3s) [DRSC07499] | droplet/nuclear area B-score, replicate 1: -0.0423
